PubChem BioAssay AID540276 (National Center for Advancing Translational Sciences (NCATS), 2011)
Values joined by “and” are separate entries in the source; they are usually repeats but may differ in a detail not shown here. Equal entries are not always repeated. The campaign covered roughly 300,000 compounds. About 5,400 (1.8%) were called active. Inconclusive results, whose numbers are uncertain, are shown with a selection of clear calls. The call rests on the fitted dose curve; tested in HEK293 cells. Where the call is inconclusive, the potency comes from a doubtful curve fit.

assay: qHTS for inhibitors of binding or entry into cells for Marburg Virus; settings: Marburg virus pseudotyped entry inhibition, cell reporter; activity change, negative = inhibition: at 37.8 µM (top of the series) unless noted
On the % scale 0 is the no-effect control and ±100 the full control effect; potency means the concentration at half of the fitted maximal effect.

Question: With `CCN(CC)c1ccc(/C=N/N2CCOCC2)c(O)c1` as the molecule, how does the “activity change, negative = inhibition” value read?
Answer: inactive: -12.7%

Question: Which Potency does the source give for `CSC1=C(C#N)C(c2ccncc2)C(C(=O)Nc2ccccc2)=C(C)N1` (configuration not stated) here?
Answer: inconclusive: 12.6 µM [inhibitor, partial curve, poor fit]

Question: With `O=C(NCCOCCn1c(=O)oc2ccccc21)Nc1ccc(F)cc1` as the molecule, how does the “activity change, negative = inhibition” value read?
Answer: inactive: -6.91% [at 46.1 µM]

Question: For `COc1ccc(CCC(=O)OCC(=O)Nc2sccc2C#N)cc1`, which Potency is on record?
Answer: inconclusive: 3.16 µM [activator, single point]

Question: With `Fc1ccc(NC(=S)Nc2cccc3cnccc23)cc1` as the molecule, how does the “activity change, negative = inhibition” value read?
Answer: inactive: -17% [at 46.1 µM]

Question: With `Cn1c(=O)c2c(ncn2CC(=O)Nc2ccccc2Sc2ccccc2)n(C)c1=O` as the molecule, how does the Potency read?
Answer: inconclusive: 20.6 µM [inhibitor, single point]

Question: With `Cc1cc(C(=O)N/N=C/c2sccc2C)no1` as the molecule, how does the Potency read?
Answer: inconclusive: 20.6 µM [activator, single point]

Question: With `Oc1c(C(Nc2cccc(C(F)(F)F)c2)c2ccncc2)ccc2cccnc12` (configuration not stated) as the molecule, how does the Potency read?
Answer: inconclusive: 8.91 µM [inhibitor, partial curve, poor fit]

Question: Which Potency does the source give for `O=C(CSc1ccc2nnc(-c3ccccn3)n2n1)Nc1ccccc1` here?
Answer: inconclusive: 6.31 µM [activator, single point]

Question: With `CC(=O)NCCn1c(SCc2ccc(C)cc2)nc2ccccc2c1=O` as the molecule, how does the “activity change, negative = inhibition” value read?
Answer: inactive: -12.7%

Question: With `C=CCN1C(=O)/C(=C/c2cc(C)n(-c3ccccn3)c2C)C(=O)NC1=S` as the molecule, how does the “activity change, negative = inhibition” value read?
Answer: inactive: -22.3%

Question: Which Potency does the source give for `O=C(Nc1ccccc1)c1cc(S(=O)(=O)NCc2ccncc2)ccc1Cl` here?
Answer: inconclusive: 0.891 µM [inhibitor, full curve, poor fit]

Question: For `CN(C)c1nc(N)nc(-c2cccnc2)n1`, which “activity change, negative = inhibition” value is on record?
Answer: inactive: 22.4% [at 46.1 µM]

Question: With `CCOC(=O)c1c(C)[nH]c(C(=O)Nc2ccc(NC(C)=O)cc2)c1C` as the molecule, how does the Potency read?
Answer: inconclusive: 29.1 µM [inhibitor, single point]

Question: For `COc1cccc(C(=O)NN2CC(O)=C(c3nc4ccccc4s3)C2=N)c1`, which Potency is on record?
Answer: inconclusive: 6.31 µM [inhibitor, single point]

Question: Which “activity change, negative = inhibition” value does the source give for `CCC(=O)c1c(O)n(C2CCCCCC2)c(=O)[nH]c1=O` here?
Answer: inactive: -9.87%

Question: Which Potency does the source give for `Cc1ccc(C2=NN(CC(=O)NCCN(CC(C)C)CC(C)C)C(=O)CC2)cc1` here?
Answer: inconclusive: 35.5 µM [inhibitor, single point]

Question: Which Potency does the source give for `CC(C)OCCCNc1ncnc2c1[nH]c1ccccc12` here?
Answer: inconclusive: 32.6 µM [inhibitor, single point]

Question: With `O=C1NC(=O)N(c2ccc3c(c2)OCO3)C(=O)/C1=C/c1cccs1` as the molecule, how does the Potency read?
Answer: inconclusive: 35.5 µM [inhibitor, partial curve, poor fit]

Question: For `Nc1nc(Nc2ccccc2)nc(NC2CCCCC2)c1[N+](=O)[O-]`, which Potency is on record?
Answer: inconclusive: 35.5 µM [inhibitor, single point]

Question: Which “activity change, negative = inhibition” value does the source give for `COc1ccc(C(=O)COC(=O)Cn2c(C)csc2=O)c(OC)c1` here?
Answer: inactive: -1.2%

Question: With `CCS(=O)(=O)c1ccc(C=NNc2nc3ccccc3o2)cc1` as the molecule, how does the Potency read?
Answer: inconclusive: 35.5 µM [inhibitor, single point]

Question: With `CCCCNC(=O)/C(=C\c1ccc([N+](=O)[O-])o1)NC(=O)c1ccccc1` as the molecule, how does the Potency read?
Answer: inconclusive: 35.5 µM [inhibitor, single point]

Question: For `CC(Sc1nncn1-c1ccccc1)C(=O)Nc1cccc([N+](=O)[O-])c1` (configuration not stated), which Potency is on record?
Answer: inconclusive: 3.16 µM [activator, partial curve, poor fit]

Question: With `COc1ccccc1/C=N\Nc1cc(C)nc(-n2nc(C)cc2C)n1` as the molecule, how does the Potency read?
Answer: inconclusive: 12.6 µM [inhibitor, partial curve, poor fit]

Question: With `Cc1ccc(C2=NN(CCC(=O)NCc3ccc4c(c3)OCO4)C(=O)CC2)cc1` as the molecule, how does the Potency read?
Answer: inconclusive: 10.3 µM [activator, partial curve, poor fit]

Question: With `CC(=O)NC(CC(=O)OCC(=O)c1ccc(NC(=O)CC(C)C)cc1)c1ccccc1` (configuration not stated) as the molecule, how does the Potency read?
Answer: inconclusive: 0.501 µM [activator, full curve, poor fit]

Question: With `Cc1ccc(Cn2c(C)c(CNCCCc3ccccc3)c(C(=O)O)c2C)cc1` as the molecule, how does the “activity change, negative = inhibition” value read?
Answer: inactive: -25.5% [at 46.1 µM]

Question: Which Potency does the source give for `CC(C)C(c1nnnn1C(C)(C)C)N1CCOCC1` (configuration not stated) here?
Answer: inconclusive: 6.51 µM [inhibitor, single point]

Question: For `CCc1cc2c(C)cc(C)cc2nc1SCC(=O)Nc1cc(C)on1`, which “activity change, negative = inhibition” value is on record?
Answer: inactive: 13.9% [at 46.1 µM]

Question: Which Potency does the source give for `COc1ccccc1CNC(=O)C1CCN(c2nc3ccccc3o2)CC1` here?
Answer: inconclusive: 29.1 µM [inhibitor, single point]

Question: Which Potency does the source give for `O=C(CCCn1c(SCC(=O)c2ccc(F)cc2)nc2ccccc2c1=O)NCc1ccco1` here?
Answer: inconclusive: 29.1 µM [inhibitor, single point]

Question: Which “activity change, negative = inhibition” value does the source give for `N#Cc1c(/N=C/C2C(=O)NC(=S)NC2=O)sc2c1CCCC2` here?
Answer: inactive: 6.07% [at 46.1 µM]

Question: With `CCCCCCCOc1ccc(OC(=O)c2ccncc2)cc1` as the molecule, how does the Potency read?
Answer: inconclusive: 32.6 µM [inhibitor, single point]

Question: Which Potency does the source give for `Cc1cc(/N=C/C=C2\N(C)c3ccccc3C2(C)C)n(CCC#N)n1` here?
Answer: inconclusive: 23.1 µM [inhibitor, partial curve, poor fit]

Question: With `Cc1ccc(N=Nc2c(N)nn(-c3ccccc3)c2N)cc1` as the molecule, how does the Potency read?
Answer: inactive and inconclusive: 11.2 µM [inhibitor, single point]

Question: Which “activity change, negative = inhibition” value does the source give for `O=C(NCc1nnnn1-c1ccc(F)cc1)C1CC(=O)N(c2ccc(F)cc2)C1` (configuration not stated) here?
Answer: inactive: -5.33%

Question: For `O=C(O)c1ccccc1C(=O)Nc1ccccn1`, which Potency is on record?
Answer: inactive

Question: Which “activity change, negative = inhibition” value does the source give for `C#CCN1C(=O)[C@]2(OCCC=C[C@@H]2C)c2cc(OC)ccc21` here?
Answer: inactive: 9.05% [at 14.2 µM]

Question: For `CCOC(=O)Cc1csc(NC(=O)c2c(O)c3ccccc3n(CCC(C)C)c2=O)n1`, which Potency is on record?
Answer: inconclusive: 2.82 µM [inhibitor, single point]

Question: With `O=C1/C(=C/c2ccccn2)SC(=S)N1N1CCOCC1` as the molecule, how does the Potency read?
Answer: inconclusive: 5.62 µM [inhibitor, single point]

Question: Which Potency does the source give for `CN(CCOc1ccc(Cl)cc1)c1ccc(S(=O)(=O)N2CCCCC2)cn1` here?
Answer: inconclusive: 29.1 µM [inhibitor, single point]

Question: With `CC(C)C(=O)NC(=S)Nc1ccc(S(=O)(=O)N2CCCC2)cc1` as the molecule, how does the Potency read?
Answer: inconclusive: 12.6 µM [activator, single point]

Question: With `C=CCn1c(-c2ccccc2[N+](=O)[O-])n[nH]c1=S` as the molecule, how does the “activity change, negative = inhibition” value read?
Answer: inactive: 15.2% [at 46.1 µM]

Question: Which Potency does the source give for `O=C(CN1CCC(n2nnc3cc(F)ccc32)CC1)Nc1ccc2c(c1)CCC2` here?
Answer: inconclusive: 28.2 µM [inhibitor, partial curve, poor fit]

Question: Which “activity change, negative = inhibition” value does the source give for `O=C(NCCO)c1cc2c([nH]c3ccccc32)c(-c2ccc(F)cc2)n1` here?
Answer: inactive: -28.2% [at 46.1 µM]

Question: For `COc1ccc(NC(=S)N(CCCN2CCOCC2)Cc2cn(C)c3ccccc23)cc1`, which Potency is on record?
Answer: inconclusive: 23.1 µM [inhibitor, partial curve, poor fit]

Question: For `O=C1C(Cl)=C(NCc2ccco2)C(=O)c2ccccc21`, which Potency is on record?
Answer: inconclusive: 35.5 µM [inhibitor, single point]

Question: Which Potency does the source give for `CC[n+]1c(-c2ccc(C)cc2)csc1Nc1c(C)n(C)n(-c2ccccc2)c1=O` here?
Answer: inconclusive: 0.794 µM [inhibitor, full curve, poor fit]

Question: Which “activity change, negative = inhibition” value does the source give for `Cc1ccc(OCC(=O)NCc2cccs2)cc1` here?
Answer: inactive: -8.8%

Question: With `CC(C)Sc1ncc(Cl)c(C(=O)Nc2ccc(S(=O)(=O)N(C)c3ccccc3)cc2)n1` as the molecule, how does the Potency read?
Answer: inconclusive: 35.5 µM [inhibitor, partial curve, poor fit]

Question: With `CC(OC(=O)c1cc(-c2cccnc2)nc2ccccc12)C(=O)Nc1ccc2ccccc2c1` (configuration not stated) as the molecule, how does the Potency read?
Answer: inconclusive: 7.94 µM [inhibitor, partial curve, poor fit]

Question: Which Potency does the source give for `CCN(CC)c1ncnc2c1ncn2[C@@H]1O[C@H](COP(=O)(O)OP(=O)(O)C(Br)(Br)P(=O)(O)O)[C@@H](O)[C@H]1O` here?
Answer: inconclusive: 0.891 µM [inhibitor, full curve, poor fit]

Question: For `CC(/C=C/c1cccc(Oc2ccc(F)cc2)c1)N(O)C(N)=O` (configuration not stated), which Potency is on record?
Answer: inconclusive: 562 nM [inhibitor, single point] and inconclusive: 29.1 µM [activator, partial curve, poor fit]

Question: With `N#Cc1ccc(CSc2nc3c(c(=O)[nH]2)CCCC3)cc1` as the molecule, how does the “activity change, negative = inhibition” value read?
Answer: inactive: -3.7% [at 46.1 µM]

Question: For `COc1ccc(-n2c(SCC(=O)O)nc3sc4c(c3c2=O)CCC4)cc1`, which Potency is on record?
Answer: inconclusive: 5.62 µM [activator, single point]

Question: For `Cc1cccc(C(O)(C(=O)NNC(=O)CN2CCN(C)CC2)c2cccc(C)c2)c1`, which Potency is on record?
Answer: inconclusive: 0.794 µM [inhibitor, full curve]

Question: Which Potency does the source give for `O=c1c(O)c(-c2ccc(O)cc2O)oc2cc(O)cc(O)c12` here?
Answer: inconclusive: 0.0499 µM [inhibitor, partial curve, poor fit]

Question: With `Nc1ccc(-c2nnc(-c3ccc(-c4ccccc4)cc3)o2)cc1` as the molecule, how does the Potency read?
Answer: inconclusive: 35.5 µM [inhibitor, single point]

Question: Which “activity change, negative = inhibition” value does the source give for `CCC(C)NC(=O)c1cc2c(=O)n3ccccc3nc2s1` (configuration not stated) here?
Answer: inactive: -1.17%

Question: For `CC(=O)N(c1ccccc1)c1ccc([N+](=O)[O-])cc1[N+](=O)[O-]`, which “activity change, negative = inhibition” value is on record?
Answer: inactive: 11.5%

Question: With `CCn1c(SCC(=O)Nc2ccc(-c3nc4ccc(C)cc4s3)cc2)nnc1-c1ccccc1` as the molecule, how does the “activity change, negative = inhibition” value read?
Answer: inactive: 14.6%

Question: For `CC(=O)Nc1ccc(S(=O)(=O)Nc2cc(-c3ccccc3)nn2C)cc1`, which Potency is on record?
Answer: inconclusive: 35.5 µM [activator, single point]

Question: For `COc1ccc(Br)cc1CN(C)CC(=O)Nc1c(Cl)cccc1Cl`, which “activity change, negative = inhibition” value is on record?
Answer: inactive: -5.17%

Question: Which Potency does the source give for `Cc1ccc(S(=O)(=O)N2CCOCC2)cc1NC(=O)C1CC(=O)N(c2ccc3c(c2)OCCO3)C1` (configuration not stated) here?
Answer: inconclusive: 7.94 µM [inhibitor, partial curve, poor fit]

Question: For `Cn1cc(/C(Cc2ccccc2)=N\O)c2ccccc21`, which Potency is on record?
Answer: inconclusive: 1.83 µM [inhibitor, full curve]

Question: With `O=C(OCC(O)C(O)C(O)C(SCc1ccccc1)SCc1ccccc1)c1ccccc1` (configuration not stated) as the molecule, how does the Potency read?
Answer: inconclusive: 35.5 µM [inhibitor, single point]
